Measurements reported in paper PMC5542435.

Chains of the proteins cited; added tags and fusions are not shown. Lines headed by an entry give the natural chain unless they say otherwise; changes in a name come on top.
UniProt A0A2X4T7I8: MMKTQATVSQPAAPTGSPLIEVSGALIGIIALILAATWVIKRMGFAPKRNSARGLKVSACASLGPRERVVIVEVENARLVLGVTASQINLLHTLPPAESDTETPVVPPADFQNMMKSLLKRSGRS

What was measured:
[1] = target: T1, His6-FliP (expressed from pTrc99a-fliO-fliP_(His6) in E. coli) (UniProt P54700); test: pull-down + SEC; FliO and FliP_(His6) co-expressed in E. coli; crude membranes solubilised in DDM; Ni-NTA affinity purification of FliP_(His6), then size exclusion chromatography; fractions analysed by Coomassie and anti-FliP / anti-FliO Western blot
T1 sequence: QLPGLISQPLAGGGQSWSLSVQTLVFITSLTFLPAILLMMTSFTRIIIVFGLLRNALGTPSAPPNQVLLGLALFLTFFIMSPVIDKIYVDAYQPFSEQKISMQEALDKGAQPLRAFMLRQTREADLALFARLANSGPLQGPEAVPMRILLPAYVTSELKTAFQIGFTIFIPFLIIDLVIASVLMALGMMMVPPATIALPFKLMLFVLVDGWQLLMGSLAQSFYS

[2] = target: T2, FliP-3×FLAG (chromosomally encoded, expressed from the native fliP locus) (S. enterica serovar Typhimurium LT2) (UniProt P54700); test: native gel or EMSA; BN-PAGE (3%–12%) of crude membrane extracts solubilised in DDM, strain with chromosomal FliP-3×FLAG; FliP-containing complexes found by anti-FLAG Western blot, selected bands analysed by LC-MS/MS
T2 sequence: T1 sequence

[3] = target: FliO-3×FLAG (chromosomally encoded) (S. enterica serovar Typhimurium LT2); test: co-IP; pull down of chromosomal FliO-3×FLAG on anti-FLAG M2 affinity gel from DDM-solubilised crude membrane extracts of a rod− background; chromosomal FliP-3×HA co-purified

FliO (co-expressed with His6-FliP in E. coli)
binding [1]: binds

FliO (untagged, endogenous in S. Typhimurium) (from UniProt A0A2X4T7I8)
binding [2]: binds

B1: FliP-3×HA (chromosomally encoded) (protein, UniProt P54700 22-245)
chain: T1 sequence
binding [3]: binds

No constants are given. Whether binding was seen depends on the method and setting. A result given as binding can be weak or reduced; the word gives no strength. Sequences can lack the tags named with a protein. For part of these data: Binding seen in cells or lysates may run through a third protein.
